No constants are given. Whether binding was seen depends on the method and setting. Binding seen in cells or lysates may run through a third protein. Some entries that bind do so weakly or less than the wild type.

Protein sequences, listed by entry. Tags and fused reporters are not part of them.
UniProt Q00175: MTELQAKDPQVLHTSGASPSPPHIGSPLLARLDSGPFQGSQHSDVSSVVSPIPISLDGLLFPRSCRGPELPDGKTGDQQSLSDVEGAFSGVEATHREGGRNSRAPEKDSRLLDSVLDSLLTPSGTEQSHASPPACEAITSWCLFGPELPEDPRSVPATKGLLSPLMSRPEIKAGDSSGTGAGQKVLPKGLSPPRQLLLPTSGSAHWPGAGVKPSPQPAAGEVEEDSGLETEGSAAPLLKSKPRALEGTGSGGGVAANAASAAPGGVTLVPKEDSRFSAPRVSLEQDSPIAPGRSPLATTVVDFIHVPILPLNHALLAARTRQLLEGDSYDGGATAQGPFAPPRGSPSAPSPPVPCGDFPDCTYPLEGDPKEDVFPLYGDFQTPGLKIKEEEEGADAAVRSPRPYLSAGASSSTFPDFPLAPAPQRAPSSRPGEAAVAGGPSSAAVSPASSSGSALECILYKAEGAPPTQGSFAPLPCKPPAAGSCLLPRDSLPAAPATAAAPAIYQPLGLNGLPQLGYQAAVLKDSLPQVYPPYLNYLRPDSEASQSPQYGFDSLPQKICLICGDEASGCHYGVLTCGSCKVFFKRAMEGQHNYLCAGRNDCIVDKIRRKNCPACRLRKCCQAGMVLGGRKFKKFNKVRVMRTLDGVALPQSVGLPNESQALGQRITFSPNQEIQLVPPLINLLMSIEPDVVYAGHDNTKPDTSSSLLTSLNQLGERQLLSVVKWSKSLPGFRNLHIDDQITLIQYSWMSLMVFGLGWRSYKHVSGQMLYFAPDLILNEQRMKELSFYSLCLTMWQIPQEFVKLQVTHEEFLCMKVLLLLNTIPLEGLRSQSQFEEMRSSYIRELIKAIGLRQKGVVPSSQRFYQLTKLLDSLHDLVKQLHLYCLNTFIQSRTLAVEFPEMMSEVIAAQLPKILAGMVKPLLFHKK
UniProt Q62318: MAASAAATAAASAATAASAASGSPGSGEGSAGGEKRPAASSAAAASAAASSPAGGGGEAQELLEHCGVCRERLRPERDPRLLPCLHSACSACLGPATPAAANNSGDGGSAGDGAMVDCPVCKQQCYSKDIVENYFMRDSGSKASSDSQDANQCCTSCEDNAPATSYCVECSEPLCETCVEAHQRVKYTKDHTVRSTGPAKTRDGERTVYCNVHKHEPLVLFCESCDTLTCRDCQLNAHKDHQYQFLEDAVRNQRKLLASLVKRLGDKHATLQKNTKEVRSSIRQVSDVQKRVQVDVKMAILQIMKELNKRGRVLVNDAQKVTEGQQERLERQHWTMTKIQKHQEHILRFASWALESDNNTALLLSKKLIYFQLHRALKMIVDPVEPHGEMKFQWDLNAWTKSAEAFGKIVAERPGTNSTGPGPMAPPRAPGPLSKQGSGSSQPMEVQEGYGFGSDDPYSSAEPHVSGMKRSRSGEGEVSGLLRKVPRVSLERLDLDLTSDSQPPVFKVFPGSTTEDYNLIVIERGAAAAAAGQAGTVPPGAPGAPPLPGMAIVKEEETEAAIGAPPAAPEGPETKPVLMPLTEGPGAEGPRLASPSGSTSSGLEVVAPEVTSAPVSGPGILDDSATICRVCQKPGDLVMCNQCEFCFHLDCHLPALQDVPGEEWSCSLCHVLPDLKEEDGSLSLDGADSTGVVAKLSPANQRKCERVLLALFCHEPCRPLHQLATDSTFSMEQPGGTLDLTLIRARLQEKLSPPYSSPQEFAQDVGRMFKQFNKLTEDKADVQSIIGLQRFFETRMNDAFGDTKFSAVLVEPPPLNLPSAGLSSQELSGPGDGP
UniProt P06401: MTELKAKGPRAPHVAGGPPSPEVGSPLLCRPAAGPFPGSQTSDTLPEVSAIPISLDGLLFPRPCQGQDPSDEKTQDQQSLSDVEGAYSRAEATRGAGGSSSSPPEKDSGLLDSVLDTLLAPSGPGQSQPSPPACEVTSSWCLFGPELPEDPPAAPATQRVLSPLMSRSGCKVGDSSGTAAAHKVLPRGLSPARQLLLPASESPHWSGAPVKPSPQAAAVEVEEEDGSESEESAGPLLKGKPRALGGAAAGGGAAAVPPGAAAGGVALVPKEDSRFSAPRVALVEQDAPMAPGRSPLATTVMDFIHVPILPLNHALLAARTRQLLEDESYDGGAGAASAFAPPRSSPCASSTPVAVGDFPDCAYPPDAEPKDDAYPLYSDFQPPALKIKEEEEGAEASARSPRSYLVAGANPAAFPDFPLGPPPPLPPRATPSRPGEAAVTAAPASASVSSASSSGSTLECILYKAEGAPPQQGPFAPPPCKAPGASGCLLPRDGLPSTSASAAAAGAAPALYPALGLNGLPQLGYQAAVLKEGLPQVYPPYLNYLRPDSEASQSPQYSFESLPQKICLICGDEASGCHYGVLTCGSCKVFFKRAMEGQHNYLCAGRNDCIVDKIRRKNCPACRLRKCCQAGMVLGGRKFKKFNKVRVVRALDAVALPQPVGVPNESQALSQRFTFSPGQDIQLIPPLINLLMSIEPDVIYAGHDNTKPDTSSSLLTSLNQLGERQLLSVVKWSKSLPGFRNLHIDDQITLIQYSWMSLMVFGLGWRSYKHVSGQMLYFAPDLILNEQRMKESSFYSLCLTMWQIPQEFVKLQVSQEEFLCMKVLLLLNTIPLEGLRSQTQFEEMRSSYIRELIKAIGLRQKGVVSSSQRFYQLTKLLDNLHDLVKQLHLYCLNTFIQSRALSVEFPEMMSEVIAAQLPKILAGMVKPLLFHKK
UniProt P19785: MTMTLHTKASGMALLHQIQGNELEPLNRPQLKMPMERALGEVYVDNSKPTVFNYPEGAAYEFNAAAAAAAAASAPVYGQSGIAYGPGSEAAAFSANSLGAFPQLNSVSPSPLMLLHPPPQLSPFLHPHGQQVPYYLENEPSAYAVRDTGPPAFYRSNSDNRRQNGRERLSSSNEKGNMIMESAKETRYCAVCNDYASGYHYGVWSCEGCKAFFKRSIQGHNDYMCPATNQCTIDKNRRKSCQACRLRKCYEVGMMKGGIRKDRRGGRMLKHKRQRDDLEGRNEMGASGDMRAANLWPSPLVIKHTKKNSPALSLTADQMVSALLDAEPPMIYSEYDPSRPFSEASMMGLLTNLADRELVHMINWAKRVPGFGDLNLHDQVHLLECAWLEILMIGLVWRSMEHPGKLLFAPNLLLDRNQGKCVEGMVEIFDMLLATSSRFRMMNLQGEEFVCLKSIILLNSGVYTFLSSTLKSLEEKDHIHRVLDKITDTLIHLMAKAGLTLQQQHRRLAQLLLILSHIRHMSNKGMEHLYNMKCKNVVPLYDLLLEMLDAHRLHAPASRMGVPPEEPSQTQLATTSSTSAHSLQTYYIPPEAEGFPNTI
UniProt Q13263: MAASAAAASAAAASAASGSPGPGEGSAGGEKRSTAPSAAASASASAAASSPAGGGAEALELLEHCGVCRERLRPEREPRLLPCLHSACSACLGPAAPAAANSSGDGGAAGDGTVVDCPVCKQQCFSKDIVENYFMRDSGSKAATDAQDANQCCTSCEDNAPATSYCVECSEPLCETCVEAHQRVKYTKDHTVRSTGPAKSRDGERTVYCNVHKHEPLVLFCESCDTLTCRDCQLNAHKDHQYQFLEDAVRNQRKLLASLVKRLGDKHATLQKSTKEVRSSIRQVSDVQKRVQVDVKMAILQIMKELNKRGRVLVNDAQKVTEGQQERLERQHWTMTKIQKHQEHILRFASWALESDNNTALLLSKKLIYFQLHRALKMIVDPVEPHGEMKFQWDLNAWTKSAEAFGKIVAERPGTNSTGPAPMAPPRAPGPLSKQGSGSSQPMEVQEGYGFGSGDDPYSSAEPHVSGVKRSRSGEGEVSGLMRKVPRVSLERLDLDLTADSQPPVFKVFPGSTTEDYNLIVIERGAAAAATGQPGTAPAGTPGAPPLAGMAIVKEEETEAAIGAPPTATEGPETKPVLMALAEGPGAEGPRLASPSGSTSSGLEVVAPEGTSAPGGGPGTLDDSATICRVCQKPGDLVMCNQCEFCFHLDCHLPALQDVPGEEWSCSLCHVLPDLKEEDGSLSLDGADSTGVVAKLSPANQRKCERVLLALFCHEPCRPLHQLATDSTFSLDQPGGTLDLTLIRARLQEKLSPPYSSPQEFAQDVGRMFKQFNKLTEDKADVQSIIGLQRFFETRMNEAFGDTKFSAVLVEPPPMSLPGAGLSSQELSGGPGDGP

Experiment [1] has as its target progesterone receptor (PR), endogenous in mouse uterus (mouse (endogenous in uterus)) (UniProt Q00175). Kind of experiment: co-IP; proteins from D3.5 mouse uterus; antibody or rabbit IgG at 4 °C overnight, Dynabeads Protein A, western blot. (In general: Immunoblotting shows a protein as a band on a membrane.)
Experiment [2] concerns the target TRIM28, endogenous in mouse uterus (mouse (endogenous in uterus)) (UniProt Q62318). The experiment is described as above.
Experiment [3] has as its target progesterone receptor (PR), endogenous in primary human endometrial stromal cells (human (endogenous in primary HESCs)) (UniProt P06401). The experiment in a line: proximity ligation; Duolink Proximity Ligation Assay with PR and TRIM28 antibodies in siNT or siTRIM28 treated pre-decidual and decidual HESCs; confocal microscopy.
For experiment [4] the target is unchanged. The experiment in a line: co-IP; proteins from decidual primary HESCs, PR antibody or rabbit IgG at 4 °C overnight, Dynabeads Protein A, western blot.
Experiment [5] concerns the target HA tagged human PGR-B (human) (UniProt P06401). Kind of experiment: co-IP; proteins from HeLa cells overexpressing HA tagged PGR-B and GFP tagged TRIM28; antibody at 4 °C overnight, Dynabeads Protein A, western blot.

For “estrogen receptor α (ERα), endogenous in mouse uterus (from UniProt P19785 1-599)”, the binding entry in experiment [1] and in experiment [2] was “binds” throughout. With “TRIM28 (Tripartite motif containing 28), endogenous in primary human endometrial stromal cells (from UniProt Q13263 1-835)”, the binding entry in experiment [3] and in experiment [4] was “binds” throughout. Take “GFP tagged TRIM28 (from UniProt Q13263 1-835)”: the binding entry in experiment [5] was “binds”.

The values are drawn from paper PMC10393996.
